The values that follow come from PubChem BioAssay AID192 (DTP/NCI, 2004).

Molecules are shown by their SMILES. The list does not hold the whole screen: it covers a few groups of compounds. Other doses and runs of a compound may be missing. T/C gives the treated animals as a percentage of the vehicle group. Some entries give survivors of the animals treated and no T/C: the source files T/C as zero there, which appears to mark a toxic dose or a test without result, not a measured value. Some doses without a T/C left all or most animals alive at the check, yet need not have been tolerated: the source hardly ever lists a survival T/C far under the control, and the zero likely stands for such cases as well. Counts of survivors are from the toxicity check (mostly the fifth day) where no day follows; animals may have died later. Schedule codes are those of the source, taken here to give the interval after Q, in days (D) or hours (H), and the number of doses after X. Some entries were tested several times; the values are given in rising order. Where survival is the endpoint, this PubChem deposit counts one and a half times the control or more as active, and values a quarter to a half above the control carry no call in these data; other NCI protocols may use other cut-offs. Some entries show no survivor count and are marked so; the dose need not have been tolerated. Signs of the kind (2×) say how often a value occurs here. Some T/C values are followed by the survivors on the day toxicity was checked, most often the fifth; without a count or a note in brackets, all were alive then.

For the experiment, the system named is BDF1 mice, B16 melanoma ip, median survival T/C. As to the kind of experiment: NCI In Vivo Anticancer Drug Screen. Data for tumor model B16 Melanoma (intraperitoneal) in B6D2F1 (BDF1) mice. The settings on record: T/C endpoint: median survival time, schedule: Q01DX009 (ip), higher T/C = longer survival. Here is the method: The antitumor activity of compounds was measured in mice bearing transplantable tumors. Survival or tumor size were measured and the results are expressed as the measurement made in the treated group (T) divided by the measurement made in the vehicle treated control group (C). The tumor model used in this assay is B16 Melanoma (intraperitoneal) in B6D2F1 (BDF1) mice

[1] abbreviates: dose: 1.56 mg/kg/injection, vehicle: Klucel (hydroxypropylcellulose) (HPC), evaluated on day 60.
Where [2] appears, read: dose: 1.56 mg/kg/injection, vehicle: Klucel (hydroxypropylcellulose) (HPC), evaluation day not shown.
The mark [3] stands for this setting: dose: 3.12 mg/kg/injection, vehicle: Klucel (hydroxypropylcellulose) (HPC).
The mark [4] stands for this setting: dose: 50.0 mg/kg/injection, vehicle: Klucel (hydroxypropylcellulose) (HPC).
Where [5] appears, read: dose: 12.5 mg/kg/injection, vehicle: Klucel (hydroxypropylcellulose) (HPC).
The mark [6] stands for this setting: dose: 25.0 mg/kg/injection, vehicle: Klucel (hydroxypropylcellulose) (HPC).
The mark [7] stands for this setting: dose: 6.25 mg/kg/injection, vehicle: Klucel (hydroxypropylcellulose) (HPC).

Consider `ClCCN(CCCl)c1ccccc1`, for which the T/C is, setting by setting: under setting [1], 107 % of control; under setting [2], 96 % of control [survivor count not shown]; (dose: 3.0 mg/kg/injection, vehicle: saline with Tween-80) 112 % of control [survivor count not shown]; under setting [3], 107 and 108 % of control; (dose: 3.13 mg/kg/injection, vehicle: Klucel (hydroxypropylcellulose) (HPC), evaluated on day 60) 101 % of control; (dose: 3.13 mg/kg/injection, vehicle: Klucel (hydroxypropylcellulose) (HPC), evaluation day not shown) 97 % of control [survivor count not shown]. The T/C was 119 % of control [survivor count not shown] (dose: 6.0 mg/kg/injection, vehicle: saline with Tween-80); 110, 119, 122 % of control (dose: 6.25 mg/kg/injection, vehicle: Klucel (hydroxypropylcellulose) (HPC), evaluated on day 60); 104 % of control [survivor count not shown] (dose: 6.25 mg/kg/injection, vehicle: Klucel (hydroxypropylcellulose) (HPC), evaluation day not shown); 108 % of control [survivor count not shown] (2×) (dose: 6.25 mg/kg/injection, vehicle: saline with Tween-80); 128 % of control [survivor count not shown] (dose: 12.0 mg/kg/injection, vehicle: saline with Tween-80); 123, 136, 159 % of control (dose: 12.5 mg/kg/injection, vehicle: Klucel (hydroxypropylcellulose) (HPC), evaluated on day 60). Besides, the T/C is, setting by setting: (dose: 12.5 mg/kg/injection, vehicle: Klucel (hydroxypropylcellulose) (HPC), evaluation day not shown) 110 % of control [survivor count not shown]; (dose: 12.5 mg/kg/injection, vehicle: saline with Tween-80) 125 [survivor count not shown] and 129 % of control [survivor count not shown]; (dose: 24.0 mg/kg/injection, vehicle: saline with Tween-80) 102 % of control [survivor count not shown]; (dose: 25.0 mg/kg/injection, vehicle: Klucel (hydroxypropylcellulose) (HPC), evaluated on day 60) 144 [9 of 10 alive], 154, 159 % of control; (dose: 25.0 mg/kg/injection, vehicle: Klucel (hydroxypropylcellulose) (HPC), evaluation day not shown) 93 % of control [survivor count not shown]; (dose: 25.0 mg/kg/injection, vehicle: saline with Tween-80) 102 [survivor count not shown], 112 [survivor count not shown], 133 % of control [survivor count not shown]. Further, the T/C (dose: 44.0 mg/kg/injection, vehicle: saline with Tween-80) is 103 % of control [survivor count not shown]; the T/C (dose: 50.0 mg/kg/injection, vehicle: saline with Tween-80) is 116 [survivor count not shown] and 134 % of control [survivor count not shown]; the T/C (dose: 100.0 mg/kg/injection, vehicle: saline with Tween-80) is 150 % of control [survivor count not shown]. The survivor count under setting [4] was 9 of 10 and 10 of 10.
On to `ClCCN(CCCl)c1ccc(Cl)cc1`, for which the T/C runs as follows: under setting [5], 95 % of control [survivor count not shown]; under setting [6], 93 % of control [survivor count not shown]; under setting [4], 97 % of control [survivor count not shown]; (dose: 100.0 mg/kg/injection, vehicle: Klucel (hydroxypropylcellulose) (HPC)) 93 % of control [survivor count not shown]; (dose: 200.0 mg/kg/injection, vehicle: Klucel (hydroxypropylcellulose) (HPC)) 102 % of control [survivor count not shown]; (dose: 400.0 mg/kg/injection, vehicle: Klucel (hydroxypropylcellulose) (HPC)) 108 % of control [survivor count not shown].
On to `Cc1ccc(N(CCBr)CCBr)cc1`, for which the T/C under setting [1] is 143 % of control; the T/C under setting [2] is 130 % of control [survivor count not shown]; the T/C under setting [3] was 121 % of control [survivor count not shown]; the T/C (dose: 3.13 mg/kg/injection, vehicle: Klucel (hydroxypropylcellulose) (HPC)) was 150 % of control; the T/C under setting [7] was 130 % of control [survivor count not shown]; the T/C under setting [5] was 130 % of control [survivor count not shown]. The survivor count is, setting by setting: under setting [7], 10 of 10; under setting [5], 10 of 10; under setting [6], 8 of 10.
